PubChem BioAssay AID1259308, NCATS | 2017

- Screen: 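Knock-downs that increase output of a recombinant reporter protein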 (primary screen)
- Cell system: human HEK293 embryonic kidney cells stably expressing firefly luciferase (HEK-CMV-Luc2-Hygro)
- Reagent: single siRNA against human genes, 0.8 pmol siRNA per well
- Duration: 72 h
- Measurement: 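Reporter luminescence and viable-cell signal on separate replicate plates, given as percent of non-targeting control and median/MAD z-scores, plus per-cell luciferase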
- Reading the numbers: total luciferase, z-score and total luciferase, % of control: higher = more reporter protein produced
- Rule for the call: 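An siRNA counts as active if its total luciferase robust z-score exceeds 3; genes with two or more such siRNAs out of three were retested with fresh siRNAs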
- Meaning of the calls: active = raised luciferase; inactive = no rise
The whole screen tested about 59,000 reagents; this is a random part of them. In the full data, about 1,510 (2.6%) were called active. 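Calls use total luciferase alone and ignore viability, so some active siRNAs may act by altering cell number.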 Reagents against one gene are numbered here. Not all columns of the deposit are shown. Reagent sequences are not shown.

Gene | reagent | total luciferase, z-score | total luciferase, % of control | outcome
PCAT18 (GeneID 728606) | 1 | 1.68 | 115 | inactive
PCAT18 (GeneID 728606) | 2 | -2.07 | 40.6 | inactive
PCAT18 (GeneID 728606) | 3 | 0.734 | 96.5 | inactive
GLP2R (GeneID 9340) | 1 | 0.218 | 86.2 | inactive
GLP2R (GeneID 9340) | 2 | -0.135 | 79.2 | inactive
GLP2R (GeneID 9340) | 3 | -0.216 | 77.6 | inactive
CASC3 (GeneID 22794) | 1 | -1.11 | 59.8 | inactive
CASC3 (GeneID 22794) | 2 | -2.88 | 24.6 | inactive
CASC3 (GeneID 22794) | 3 | 0.145 | 84.8 | inactive
LHX9 (GeneID 56956) | 1 | -0.316 | 75.6 | inactive
LHX9 (GeneID 56956) | 2 | 0.316 | 88.2 | inactive
LHX9 (GeneID 56956) | 3 | 1.54 | 113 | inactive
LRRC1 (GeneID 55227) | 1 | -0.233 | 77.3 | inactive
LRRC1 (GeneID 55227) | 2 | 0.071 | 83.3 | inactive
LRRC1 (GeneID 55227) | 3 | -0.46 | 72.7 | inactive
FEZF1 (GeneID 389549) | 1 | 1.68 | 115 | inactive
FEZF1 (GeneID 389549) | 2 | 1.6 | 114 | inactive
FEZF1 (GeneID 389549) | 3 | 1.59 | 114 | inactive
SH3BP5 (GeneID 9467) | 1 | -0.346 | 75 | inactive
SH3BP5 (GeneID 9467) | 2 | 1.21 | 106 | inactive
SH3BP5 (GeneID 9467) | 3 | -0.23 | 77.3 | inactive
CARM1 (GeneID 10498) | 1 | -0.0663 | 80.6 | inactive
CARM1 (GeneID 10498) | 2 | 0.165 | 85.2 | inactive
CARM1 (GeneID 10498) | 3 | 0.374 | 89.3 | inactive
CSAD (GeneID 51380) | 1 | -0.142 | 79.1 | inactive
CSAD (GeneID 51380) | 2 | 0.0707 | 83.3 | inactive
CSAD (GeneID 51380) | 3 | -0.884 | 64.3 | inactive
H4C6 (GeneID 8361) | 1 | -1.91 | 43.8 | inactive
H4C6 (GeneID 8361) | 2 | 0.859 | 99 | inactive
H4C6 (GeneID 8361) | 3 | 2.37 | 129 | inactive
MYCBPAP (GeneID 84073) | 1 | 0.852 | 98.8 | inactive
MYCBPAP (GeneID 84073) | 2 | 0.862 | 99 | inactive
MYCBPAP (GeneID 84073) | 3 | -0.183 | 78.2 | inactive
MED14 (GeneID 9282) | 1 | -2.1 | 40.1 | inactive
MED14 (GeneID 9282) | 2 | -1.96 | 42.8 | inactive
MED14 (GeneID 9282) | 3 | -2.31 | 35.9 | inactive
GLYATL2 (GeneID 219970) | 1 | -0.935 | 63.3 | inactive
GLYATL2 (GeneID 219970) | 2 | 0.144 | 84.8 | inactive
GLYATL2 (GeneID 219970) | 3 | -0.577 | 70.4 | inactive

Quoted from above, 3 entries:
Gene | reagent | total luciferase, z-score | total luciferase, % of control | outcome
GLP2R (GeneID 9340) | 2 | -0.135 | 79.2 | inactive
GLP2R (GeneID 9340) | 3 | -0.216 | 77.6 | inactive
CASC3 (GeneID 22794) | 1 | -1.11 | 59.8 | inactive
